“And” between values parts separate entries of the source, which are not always exact repeats. Identical values can stand only once. Hit rate of the full screen: of about 300,000 compounds, about 5,400 (1.8%) were called active. The shares of active, inactive and inconclusive entries below differ from those in the screen. Calls follow the shape of the full dose curve; tested in HEK293 cells. A potency beside an inconclusive call is a rough fit, not a confirmed value.
Assay: qHTS for inhibitors of binding or entry into cells for Marburg Virus
Conditions: Marburg virus pseudotyped entry inhibition, cell reporter; series mostly up to 37.8 µM
With CCOc1ccc(CCNC(=O)c2cccc(S(=O)(=O)N3CCCC3)c2)cc1OCC the Potency was inconclusive: 7.94 µM [inhibitor, partial curve].
With C=CCc1cccc(CNc2ccc(Br)cc2)c1O the Potency was inconclusive: 20.6 µM [inhibitor, single point].
With COc1ccc(CCNC(=O)c2ccc(-c3ccc([N+](=O)[O-])cc3)o2)cc1OC the Potency was inconclusive: 12.6 µM [inhibitor, single point].
With COCCn1c(C)cc(C(=O)CSc2nc3ccccc3c(=O)n2C(C)COC)c1C (stereo not drawn) the Potency was inconclusive: 25.1 µM [inhibitor, partial curve].
In the case of O=C(Cn1nc(-c2ccccc2)oc1=O)OCC(=O)c1ccc(F)c(F)c1, the Potency is reported as inconclusive: 17.8 µM [inhibitor, single point].
With Cc1ccc(NC(=O)c2nc(S(C)(=O)=O)ncc2N(Cc2ccc(C(C)(C)C)cc2)Cc2ccco2)cc1C the Potency was “inactive”.
For O=C(/C=C/c1cccc(Cl)c1)Nc1ncccn1, the Potency was “inactive”.
For NCCC(=O)NCCc1cnc[nH]1, the Potency was inconclusive: 0.251 µM [inhibitor, full curve].
In the case of CC(=O)c1ccc(NC(=O)Cc2ccsc2)cc1, the Potency is reported as “inactive”.
In the case of Cc1cc(Cl)ccc1NC(=S)N1CCN(Cc2ccccc2)CC1, the Potency is reported as inconclusive: 6.31 µM [activator, single point].
With COc1c(NC(C)=O)c2ccccc2c2ccccc12 the Potency was inconclusive: 35.5 µM [activator, single point].
For COc1cc(C)ccc1OCCOc1cc(C)ccc1Cl, the Potency was inconclusive: 5.62 µM [activator, single point].
With Cc1cc(OCc2nn[nH]n2)c2c(C)c(CC(=O)O)c(=O)oc2c1 the Potency was “inactive”.
For CC(=O)c1ccc(NC(=O)C(C)NCc2ccccc2Cl)cc1 (stereo not drawn), the Potency was “inactive”.
With C[C@@H]1CC[C@H]2C(=O)O[C@H](COc3ccc(C(C)(C)C)cc3)CN2[C@H]1c1ccc(Br)cc1 the Potency was inconclusive: 4.73 µM [inhibitor, partial curve, poor fit].
In the case of CCCCc1c(O)nc(SCC(=O)NCC2CCCO2)[nH]c1=O (stereo not drawn), the Potency is reported as “inactive”.
With COc1ccc(/C=N/Nc2ccccc2C(=O)O)cc1 the Potency was inconclusive: 1.41 µM [inhibitor, full curve, poor fit].
With Cc1sc2c(c1C)c(=O)n(-c1ccccc1)c1nncn21 the Potency was inconclusive: 1.16 µM [activator, single point].
For CN(C(=O)CCc1nc(-c2ccccc2F)no1)c1ccc(Cl)cc1, the Potency was “inactive”.
In the case of Cc1cccc(NC(=S)NCC2CCCO2)c1 (stereo not drawn), the Potency is reported as inconclusive: 35.5 µM [activator, single point].
With c1ccc(SCc2nc3ccccc3[nH]2)nc1 the Potency was inconclusive: 2.24 µM [activator, partial curve, poor fit].
With O=c1cc(-c2ccc(O)cc2)oc2cc(O)cc(O)c12 the Potency was inconclusive: 8.2 µM [activator, partial curve, poor fit] and inconclusive: 3.55 µM [activator, partial curve].
In the case of O=C(Nc1ccc2c(c1)OCCO2)NC12CC3CC(CC(C3)C1)C2, the Potency is reported as inconclusive: 0.092 µM [activator, full curve, poor fit].
With Cc1ccc(NC2=C/C(=N\S(=O)(=O)c3cccs3)c3ccccc3C2=O)c(C)c1 the Potency was inconclusive: 4.47 µM [inhibitor, single point].
For O=C(COc1ccc(Cl)cc1)NCCNC(=O)c1cnccn1, the Potency was “inactive”.
In the case of CN(C)Cc1c(C(=O)N/N=C/c2ccc(OCc3c(F)cccc3Cl)cc2)nnn1-c1nonc1N, the Potency is reported as inconclusive: 6.31 µM [activator, partial curve, poor fit].
In the case of CSc1ccc(-c2nc(CSCC(=O)NCCCN3CCOCC3)c(C)o2)cc1, the Potency is reported as “inactive”.
With CCCC(C(=O)NC1CCCC1)N(C(=O)c1snc(C(N)=O)c1N)c1ccc(F)cc1 (stereo not drawn) the Potency was inconclusive: 6.31 µM [inhibitor, partial curve, poor fit].
With COc1ccc(CCNC(=O)CCn2c(=O)c3ccccc3n(Cc3ccccc3F)c2=O)cc1OC the Potency was “inactive”.
With O=C(c1ccc(S(=O)(=O)N2CCCC2)cc1)N(c1ccc(F)cc1)C1C=CS(=O)(=O)C1 (stereo not drawn) the Potency was “inactive”.
For O=C(CSc1ccc2nnc(-c3cccnc3)n2n1)Nc1ccc(F)cc1, the Potency was inconclusive: 1.12 µM [inhibitor, partial curve, poor fit].
In the case of CC(=O)Nc1nc2n(n1)C(c1ccc(F)cc1)C=C(c1ccc(Cl)cc1)N2 (stereo not drawn), the Potency is reported as inconclusive: 35.5 µM [inhibitor, single point].
With Cc1ccc(CNC(=O)C2CCN(c3nc(C)cc(C)n3)CC2)cc1 the Potency was “inactive”.
In the case of O=c1c2c3nc4ccccc4nc3n(-c3ccc4c(c3)OCCO4)c2ncn1C1CCCC1, the Potency is reported as inconclusive: 6.31 µM [inhibitor, single point].
In the case of O=C(Nc1ccc(N2CCCC2)cc1)c1cccc(-c2cc3ccccc3oc2=O)c1, the Potency is reported as inconclusive: 5.62 µM [inhibitor, full curve, poor fit].
For O=C(c1cccc(S(=O)(=O)Nc2ccccc2Cl)c1)N1CCN(C(=O)c2ccco2)CC1, the Potency was inconclusive: 6.31 µM [activator, single point].
In the case of NC[C@@H](CC(=O)O)c1ccc(Cl)cc1, the Potency is reported as “inactive”.
With CCCOc1ccc(C2=NNC(c3cccs3)=Nc3ccc(OC)cc32)cc1 the Potency was inconclusive: 29.1 µM [inhibitor, single point].
For O=C(COc1ccc(Cl)cc1Cl)NCC1(N2CCOCC2)CCCCC1, the Potency was inconclusive: 35.5 µM [inhibitor, single point].
For CC(C)c1ccc(/C=C2\SC(=S)N(CCC(=O)NCCCn3ccnc3)C2=O)cc1, the Potency was inconclusive: 25.1 µM [inhibitor, single point].
In the case of Cc1ccc(-n2c(C)cc(C(=O)C(=O)Nc3ccccc3)c2C)c(C)c1, the Potency is reported as “inactive”.
For Cc1ccccc1-n1c(C)nc2ccsc2c1=O, the Potency was inconclusive: 1.41 µM [activator, partial curve, poor fit].
In the case of CC(C)c1ccc(NC(=O)C2CCCCC2C(=O)O)cc1 (stereo not drawn), the Potency is reported as inconclusive: 12.6 µM [activator, single point].
Potency is read from the fitted curve at half-maximal effect.
